Data published in patent US12534474B2, “Dihydrofuropyridine derivatives as rho-kinase inhibitors” (CHIESI FARMACEUTICI S.P.A., priority 2020, dated 2026).
At least one compound was matched to its structure with a doubt left.

Target: PKA (Homo sapiens, UniProt P17612)
Experiment: In vitro inhibitory activity assay for PKA, ADP-Glo, reported as selectivity ratio vs ROCK2
Type: biochemical
Conditions: Ki for PKA divided by Ki of ROCK2 (Method B)
Description: In Vitro Inhibitory Activity Assay Description for PKA
The effectiveness of compounds of the present invention to inhibit PKA activity can be determined in a 10 μL assay containing 40 mM Tris pH7.5, 20 mM MgCl2 0.1 mg/mL BSA, 50 μM DTT and 260 μM peptide substrate (kemptide) using an ADP-Glo kit (Promega). Compounds were dissolved in DMSO such that the final concentration of DMSO was 1% in the assay. All reactions/incubations are performed at 25° C. Compound and PKA enzyme (6 μL) were mixed and incubated for 30 min. Reactions were initiated by addition of ATP (4 μL) such that the final concentration of ATP in the assay was 10 μM. After a 30 minute incubation 10 μL of ADP-Glo Reagent was added and after a further 1 hour incubation 20 μL of Kinase Detection Buffer was added and the mixture incubated for a further 45 minutes. The luminescent signal was measured on a luminometer. […] Compounds were tested in dose-response format and the inhibition of kinase activity was calculated at each concentration of compound. […]
In vitro inhibitory activities for PKA were reported as selectivity ratio vs. ROCK2. Selectivity ratio PKA/ROCK2 was calculated by dividing the Ki value for PKA by Ki value of ROCK2 (Method B) and reported into table 1.

## CN1CCn2nc(NC(=O)c3cccc(CNc4ncc(-c5ccncc5)c5c4CCO5)c3)cc2C1 [Example 21]
  Ratio (PKA/ROCK2): *** (ratio≥10)
